In publication PMC5533947 one finds binding data, which are given here for one molecule.

The chains behind the UniProt entries cited, without tags or fusion partners. Where a name states a change or a piece, a line headed by the entry shows the natural chain unless it says otherwise.
UniProt Q14643: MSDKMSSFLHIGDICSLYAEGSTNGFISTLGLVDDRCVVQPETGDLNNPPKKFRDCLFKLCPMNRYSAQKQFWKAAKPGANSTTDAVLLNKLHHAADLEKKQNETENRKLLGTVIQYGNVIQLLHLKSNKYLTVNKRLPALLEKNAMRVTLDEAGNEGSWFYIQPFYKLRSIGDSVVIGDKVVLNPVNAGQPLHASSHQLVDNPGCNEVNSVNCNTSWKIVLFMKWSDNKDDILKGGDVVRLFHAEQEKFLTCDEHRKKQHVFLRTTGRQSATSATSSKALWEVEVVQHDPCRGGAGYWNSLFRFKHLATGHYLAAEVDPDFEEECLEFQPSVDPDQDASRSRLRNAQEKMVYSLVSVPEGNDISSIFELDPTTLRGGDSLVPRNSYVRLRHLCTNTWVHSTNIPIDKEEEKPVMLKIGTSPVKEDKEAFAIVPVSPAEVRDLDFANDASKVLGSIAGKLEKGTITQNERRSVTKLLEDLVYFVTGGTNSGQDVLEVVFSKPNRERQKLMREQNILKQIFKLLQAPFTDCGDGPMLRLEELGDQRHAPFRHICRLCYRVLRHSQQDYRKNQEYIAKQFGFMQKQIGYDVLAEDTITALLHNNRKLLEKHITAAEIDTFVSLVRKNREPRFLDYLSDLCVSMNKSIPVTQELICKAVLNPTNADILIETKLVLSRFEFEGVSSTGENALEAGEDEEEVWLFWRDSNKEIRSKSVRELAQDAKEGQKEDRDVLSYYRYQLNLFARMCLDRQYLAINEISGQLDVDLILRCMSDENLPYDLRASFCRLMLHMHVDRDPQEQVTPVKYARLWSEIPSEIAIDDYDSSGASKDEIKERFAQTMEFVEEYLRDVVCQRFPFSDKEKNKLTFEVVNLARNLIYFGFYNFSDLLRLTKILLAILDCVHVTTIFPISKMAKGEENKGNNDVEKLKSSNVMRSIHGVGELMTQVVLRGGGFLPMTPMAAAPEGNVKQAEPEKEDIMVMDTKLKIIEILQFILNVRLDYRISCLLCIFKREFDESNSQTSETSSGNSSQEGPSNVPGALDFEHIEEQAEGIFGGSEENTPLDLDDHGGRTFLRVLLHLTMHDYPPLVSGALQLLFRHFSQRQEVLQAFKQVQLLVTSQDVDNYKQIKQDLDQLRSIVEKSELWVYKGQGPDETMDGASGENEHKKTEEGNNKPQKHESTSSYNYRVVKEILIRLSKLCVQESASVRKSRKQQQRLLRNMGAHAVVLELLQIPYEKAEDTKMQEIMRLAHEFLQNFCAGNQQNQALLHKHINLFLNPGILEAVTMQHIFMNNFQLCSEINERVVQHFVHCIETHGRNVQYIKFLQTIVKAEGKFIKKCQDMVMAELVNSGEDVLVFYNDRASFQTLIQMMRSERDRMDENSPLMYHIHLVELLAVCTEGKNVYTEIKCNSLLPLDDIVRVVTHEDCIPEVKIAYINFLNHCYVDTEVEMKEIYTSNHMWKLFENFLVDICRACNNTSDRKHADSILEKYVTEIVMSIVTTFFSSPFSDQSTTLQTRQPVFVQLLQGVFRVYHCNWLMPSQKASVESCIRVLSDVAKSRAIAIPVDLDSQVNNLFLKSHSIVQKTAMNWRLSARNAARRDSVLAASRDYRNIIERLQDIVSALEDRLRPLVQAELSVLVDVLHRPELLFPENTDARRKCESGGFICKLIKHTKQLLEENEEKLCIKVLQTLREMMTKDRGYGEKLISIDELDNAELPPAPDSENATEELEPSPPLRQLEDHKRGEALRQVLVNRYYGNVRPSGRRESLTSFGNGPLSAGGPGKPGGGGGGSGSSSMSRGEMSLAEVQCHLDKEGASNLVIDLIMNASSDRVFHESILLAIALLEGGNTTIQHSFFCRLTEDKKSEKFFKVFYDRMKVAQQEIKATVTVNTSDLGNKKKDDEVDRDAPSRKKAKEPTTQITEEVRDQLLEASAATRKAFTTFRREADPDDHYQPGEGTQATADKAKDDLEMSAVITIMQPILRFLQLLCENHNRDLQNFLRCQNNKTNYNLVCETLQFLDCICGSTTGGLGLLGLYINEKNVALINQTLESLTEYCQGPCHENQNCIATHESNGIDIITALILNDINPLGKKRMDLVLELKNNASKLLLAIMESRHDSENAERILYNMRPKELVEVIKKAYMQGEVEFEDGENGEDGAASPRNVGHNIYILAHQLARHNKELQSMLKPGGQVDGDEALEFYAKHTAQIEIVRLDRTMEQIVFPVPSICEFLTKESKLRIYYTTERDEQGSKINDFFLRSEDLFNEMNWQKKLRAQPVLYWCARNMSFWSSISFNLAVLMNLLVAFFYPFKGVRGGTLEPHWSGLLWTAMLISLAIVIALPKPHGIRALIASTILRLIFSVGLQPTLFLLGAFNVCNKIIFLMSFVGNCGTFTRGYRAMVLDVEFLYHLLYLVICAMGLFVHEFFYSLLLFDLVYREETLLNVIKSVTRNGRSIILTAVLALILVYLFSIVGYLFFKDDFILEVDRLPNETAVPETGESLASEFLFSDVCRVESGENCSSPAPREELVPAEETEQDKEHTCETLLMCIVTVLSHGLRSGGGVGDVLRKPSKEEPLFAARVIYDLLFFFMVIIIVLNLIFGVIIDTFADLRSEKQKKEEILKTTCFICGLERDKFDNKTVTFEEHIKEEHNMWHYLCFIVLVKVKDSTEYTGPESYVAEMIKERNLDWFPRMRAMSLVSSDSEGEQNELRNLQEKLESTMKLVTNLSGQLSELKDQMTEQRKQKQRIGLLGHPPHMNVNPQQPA

These are yes or no findings as the source states them, for the method shown. In cells and extracts the contact can be indirect. Binding can be weak; no strength is given. Where a sequence is shown, tags or fusion partners need not be part of it.

For experiment [1], the target named is IP3R1-TM-GFP (GFP-tagged IP3R1 truncation mutant containing the transmembrane domain) (human (cDNA from HeLa cells)) (UniProt Q14643). As to the kind of experiment: co-IP; in vitro immunoprecipitation from lysates of transfected HEK293T cells in buffer without CaCl2 (25 mM HEPES, 150 mM NaCl, 1% Triton X-100, 1 mM DTT, 1 mM MgCl2, pH 7.4); free Ca2+ adjusted with CaCl2 from 400 μM to 0 μM; antibody at 4 °C overnight.

Experiment [2] shares this target. The experiment can be described thus: co-IP; HEK293T cells co-transfected with 3xFlag- and GFP-tagged constructs; IP with anti-GFP or anti-Flag antibody and Protein A/G Sepharose, 4 °C overnight; 25 mM HEPES, 150 mM NaCl, 1% Triton X-100, 1 mM DTT, 2 mM CaCl2, 1 mM MgCl2, pH 7.4; western blot. Background: A western blot detects proteins with antibodies after separation by electrophoresis.

B1: 3 × Flag-RCN1 (reticulocalbin 1) (protein, UniProt Q15293 30-331)
chain: KPTVRKERVVRPDSELGERPPEDNQSFQYDHEAFLGKEDSKTFDQLTPDESKERLGKIVDRIDNDGDGFVTTEELKTWIKRVQKRYIFDNVAKVWKDYDRDKDDKISWEEYKQATYGYYLGNPAEFHDSSDHHTFKKMLPRDERRFKAADLNGDLTATREEFTAFLHPEEFEHMKEIVVLETLEDIDKNGDGFVDQDEYIADMFSHEENGPEPDWVLSEREQFNEFRDLNKDGKLDKDEIRHWILPQDYDHAQAEARHLVYESDKNKDEKLTKEEILENWNMFVGSQATNYGEDLTKNHDEL
As to B1, the binding entry in experiment [1] and in experiment [2] was “binds” in each case.
